The text below walks through data of the supplement of paper PMC10689618.

Assay [1] concerns Human fetal astrocytes. Nature of the assay: loss of total cells relative to no-compound high-control median (toxicity); higher = more toxic (fewer cells). The conditions noted are these: 24 h.
Assay [2] deals with Human fetal astrocytes. Put plainly: synaptosome phagocytosis (pHrodo/calcein intensity ratio) relative to plate median of data wells; higher = more phagocytosis. The conditions noted are these: 24 h.

Where a name gives a salt, the structure may show the parent alone. Some of the results follow. Repeats are few or missing, and single values can be far off.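 Labelled rat cortical synaptosomes were engulfed by primary human fetal astrocytes. Engulfment equaled a red/green ratio, corrected for calcein live-cell signal and normalized to the plate median. Compounds were toxic when calcein dropped over 30%, and reduced phagocytosis when below 70% of the median above 5 µM.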

On to `NCCCCN` [Putrescine dihydrochloride], for which the “loss of total cells” value in assay [1] (1.39 µM) is -5.3%; in assay [1] (2.78 µM), -24.3%; in assay [1] (5.56 µM) it was -1.7%; in assay [1] (11.11 µM), 8%; in assay [1] (22.22 µM), -5.8%. In addition, the synaptosome phagocytosis in assay [2] (1.39 µM) is 121%; in assay [2] (2.78 µM) it was 110%; in assay [2] (5.56 µM), 111%; in assay [2] (11.11 µM) it was 113%; in assay [2] (22.22 µM), 114%.
As to `O=C(O)CCC(=O)N1CCC[C@H]1C(=O)O` [N-Succinyl-L-proline], the “loss of total cells” value is -5.9% in assay [1] (1.39 µM); -12.9% in assay [1] (2.78 µM); -14.6% in assay [1] (5.56 µM); -27.2% in assay [1] (11.11 µM); -42.8% in assay [1] (22.22 µM). For the same molecule, the synaptosome phagocytosis in assay [2] (1.39 µM) is 91.9%; in assay [2] (2.78 µM), 75.1%; in assay [2] (5.56 µM), 86.3%; in assay [2] (11.11 µM), 100%; in assay [2] (22.22 µM) it was 94.6%.
For the molecule `CO[C@@]1(NC(=O)CSCC#N)C(=O)N2C(C(=O)O)=C(CSc3nnnn3C)CS[C@@H]21` [Cefmetazole sodium], the “loss of total cells” value in assay [1] (1.39 µM) is -12.5%; in assay [1] (2.78 µM), -15.9%; in assay [1] (5.56 µM) it was -21.7%; in assay [1] (11.11 µM), -6.7%; in assay [1] (22.22 µM), -2.6%. The synaptosome phagocytosis in assay [2] (1.39 µM) was 89.4%; in assay [2] (2.78 µM), 98.9%; in assay [2] (5.56 µM), 98.8%; in assay [2] (11.11 µM), 103%; in assay [2] (22.22 µM), 120%.
Turning to `CO/N=C(\C(=O)N[C@@H]1C(=O)N2C(C(=O)O)=C(CSc3nc(=O)c(O)nn3C)CS[C@H]12)c1csc(N)n1` [Ceftriaxone sodium], the “loss of total cells” value in assay [1] (1.39 µM) is -14.7%; in assay [1] (2.78 µM), -13.8%; in assay [1] (5.56 µM), -28.1%; in assay [1] (11.11 µM), -12.1%; in assay [1] (22.22 µM), 11.7%. Besides, the synaptosome phagocytosis in assay [2] (1.39 µM) was 84.5%; in assay [2] (2.78 µM), 107%; in assay [2] (5.56 µM), 99.6%; in assay [2] (11.11 µM), 116%; in assay [2] (22.22 µM) it was 92.6%.
Consider `OC[C@H]1O[C@@H](n2cnc3c(Nc4ccccc4)ncnc32)[C@H](O)[C@@H]1O` [N6-Phenyladenosine], for which the “loss of total cells” value in assay [1] (1.39 µM) is 4%; in assay [1] (2.78 µM), -1.5%; in assay [1] (5.56 µM), -13.5%; in assay [1] (11.11 µM) it was -28.7%; in assay [1] (22.22 µM), -36.2%. Besides, the synaptosome phagocytosis is 102% in assay [2] (1.39 µM); 100% in assay [2] (2.78 µM); 84.6% in assay [2] (5.56 µM); 97.8% in assay [2] (11.11 µM); 109% in assay [2] (22.22 µM).
Consider `CCN1CCc2nc(N)oc2CC1` [B-HT 933 dihydrochloride], for which the “loss of total cells” value was -12.8% in assay [1] (1.39 µM); -8.1% in assay [1] (2.78 µM); -23.5% in assay [1] (5.56 µM); -20.2% in assay [1] (11.11 µM); 9.4% in assay [1] (22.22 µM). In addition, the synaptosome phagocytosis was 105% in assay [2] (1.39 µM); 77.3% in assay [2] (2.78 µM); 107% in assay [2] (5.56 µM); 89.1% in assay [2] (11.11 µM); 97.1% in assay [2] (22.22 µM).
Turning to `CN(C)CCOC(=O)COc1ccc(Cl)cc1` [Centrophenoxine hydrochloride], the “loss of total cells” value in assay [1] (1.39 µM) is 22.4%; in assay [1] (2.78 µM), 0.9%; in assay [1] (5.56 µM), -1.4%; in assay [1] (11.11 µM), -10.3%; in assay [1] (22.22 µM), -10.9%. Also, the synaptosome phagocytosis was 66% in assay [2] (1.39 µM); 103% in assay [2] (2.78 µM); 97.5% in assay [2] (5.56 µM); 114% in assay [2] (11.11 µM); 105% in assay [2] (22.22 µM).
`O=c1cc(-c2ccccc2)[nH]c2nc(Cl)ccc12` [7-Chloro-4-hydroxy-2-phenyl-1,8-naphthyridine]: the “loss of total cells” value in assay [1] (1.39 µM) is -7%; in assay [1] (2.78 µM), -5.4%; in assay [1] (5.56 µM), -4.1%; in assay [1] (11.11 µM) it was -11.2%; in assay [1] (22.22 µM), 3.4%. In addition, the synaptosome phagocytosis is 107% in assay [2] (1.39 µM); 114% in assay [2] (2.78 µM); 99.9% in assay [2] (5.56 µM); 122% in assay [2] (11.11 µM); 149% in assay [2] (22.22 µM).
For `NS(=O)(=O)c1cccc2c1c([N+](=O)[O-])cc1nc(O)c(O)nc12` [NBQX disodium], the “loss of total cells” value in assay [1] (1.39 µM) was -7.1%; in assay [1] (2.78 µM), 6.8%; in assay [1] (5.56 µM) it was 17.4%; in assay [1] (11.11 µM), 8.6%; in assay [1] (22.22 µM), 6.5%. Besides, the synaptosome phagocytosis in assay [2] (1.39 µM) is 107%; in assay [2] (2.78 µM), 83.9%; in assay [2] (5.56 µM), 104%; in assay [2] (11.11 µM), 105%; in assay [2] (22.22 µM) it was 96%.
With `OC[C@H]1O[C@@H](n2cnc3c(NC4CCCC4)ncnc32)[C@H](O)[C@@H]1O` [N6-Cyclopentyladenosine], the “loss of total cells” value is -29% in assay [1] (1.39 µM); -9.6% in assay [1] (2.78 µM); -29% in assay [1] (5.56 µM); -24.7% in assay [1] (11.11 µM); -4.1% in assay [1] (22.22 µM). The synaptosome phagocytosis in assay [2] (1.39 µM) was 85.8%; in assay [2] (2.78 µM), 92.3%; in assay [2] (5.56 µM), 98%; in assay [2] (11.11 µM), 103%; in assay [2] (22.22 µM) it was 95.5%.
